Values quoted from earlier work, collected in patent EP3130594B1, “PHOSPHONATES OF ACETYLENIC BETULIN DERIVATIVES WITH ANTICANCER ACTIVITY, METHOD FOR THEIR PRODUCTION AND THEIR APPLICATION” (Slaski Uniwersytet Medyczny w Katowicach, priority 2015, dated 2017).
At least one compound was matched to its structure with a doubt left.

Tested on: melanomas and gliomas
Conditions: particularly towards neoplasms resistant to chemotherapy, such as melanomas and gliomas; cited from earlier work

C=C(C)[C@@H]1CC[C@]2(C(=O)O)CC[C@]3(C)[C@H](CC[C@@H]4[C@@]5(C)CC[C@H](O)C(C)(C)[C@@H]5CC[C@]43C)[C@@H]12 [betulinic acid, (3β)-3-hydroxy-lup-20(29)-en-28-oic acid]
anticancer activity (ED50): 0.5 to 4.0 µg/mL
